Measurements: the RNAGym collection of RNA variant scans (doi:10.1126/science.aae0568)
This sample is rich in variants without activity.

B1: tRNA (parent)
chain: GUUCCGUUGGCGUAAUGGUAACGCGUCUCCCUCCUAAGGAGAAGACUGCGGGUUCGAGUCCCGUACGGAACG

Variants of: B1
Assay: yeast fitness relative to wild type (ratio to wild type); higher = fitter; tRNA-Arg(CCU), competitive growth, 37 C, YPD
In short: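 For this measurement, the tRNA-Arg(CCU) gene was varied by chemical synthesis at a 3% per-site mutation rate across 69 sites, and each variant was placed at the native genomic locus in Saccharomyces cerevisiae. The pooled strains went through a 24-hour competition in YPD at 37°C in six parallel replicates, with amplicons from start and end populations read by 100-nucleotide paired-end sequencing. Darwinian fitness relative to wild type followed from the change in each genotype's frequency. Genotypes needed ≥ 100 starting reads, and estimates < 0.5 were set to 0.5.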

| Variant | yeast fitness |
| --- | --- |
| GUUCCGUUGGCGUAAUGGUAACGCGUCUCCCUCCUAAGGAGAAGACUGUGGGUUCAAGUCCCGUACAGAACG [C49U G56A G67A] | 0.593 |
| GUUCCGUUGGCGUAAUGGUUACGCGUCUCCCUCCUAAGGUGAAGACUGCGGGUUUGAGUCCCGUCCCGAGCG [A20U A40U C55U A65C G67C A70G] | ≤ 0.5 |
| GUUCUGUUGGCGUCAUGGUAACGCGUCUCCCUCAUAAGGAGAAGACUGCGGGUUCGAGUCCCGUACGGAACG [C5U A14C C34A] | ≤ 0.5 |
| GUACCGUUGGCGUAAUAGUAAUGCGUCUCCCUCCUAAGGAGAGGACUGCGGGUUAGAGUCCCGUACGGAACG [U3A G17A C22U A43G C55A] | ≤ 0.5 |
| GUUCCGUUGGCGUAAUGGUAACGCGUCUACCUCCUAUGGAGAAGACUGCGGGUUCGAGUCCCGUGCGGAACG [C29A A37U A65G] | ≤ 0.5 |
| GUUCCGUUGGCGUAAUGGUAACGCGUCUUCCUCCUAAGGAGAAGACUGCGGGUUCGAGUCCCGUCCUGAACG [C29U A65C G67U] | ≤ 0.5 |
| GUUCCGUUGGCGUAAUGGUAACGCGCCUCCUUCCCAAGGAGAAGACUGCGGGUUCGGGUCCCGUACGGAACG [U26C C31U U35C A57G] | ≤ 0.5 |
| GUUACGUUGGCGUAAUGGUAUCGCGUCUCUCUCCUAAGGAGAAGGCUGCGGGUUAGAGUCCCGUACGGAACG [C4A A21U C30U A45G C55A] | ≤ 0.5 |
| GUUCAGUUGGCGUAUUGGUAUCGCGUCUCCCUCCUAAGGAGAAGACUGUGGGUUCGAGUCCCGUACGGAACG [C5A A15U A21U C49U] | ≤ 0.5 |
| GUUCCGUUCGCGUAAUGGUAACGCGUCUCACUCCUAAGGAGAAGAAUCCGGGUUCGAGUCCCGUACGGAACG [G9C C30A C46A G48C] | ≤ 0.5 |
| GUUCCGUUGGCGUAAUGGUAGAGCGUCUCCCUCCUAAGGAGAAGACUGCGGGUUAGAGUCCCGAACGGAACG [A21G C22A C55A U64A] | ≤ 0.5 |
| GUUCCGUUGGGGUAAUGGCAACGCGUCUCCCUCCUAAGGAGAAGUCUGCGGGUUCGAGUCCCGGACGGACCG [C11G U19C A45U U64G A70C] | ≤ 0.5 |
| GUUCCGUUGGCGUAAUGGUAAGGCGUCUCCCUCCUAAGGAGAAGACUGCGGGUUCGAGUCCCGUACGGGACG [C22G A69G] | 0.952 |
| GUUCCGUUGGCGUAAUGGUAACGCGUCUCCCUCCUAAGGAGAUGACUCCGGGUUUGAGUCCCGUACGGAACG [A43U G48C C55U] | ≤ 0.5 |
| GUUUCGUUGGGGUAAUGGUAACGCGUCUCCCUCCUAAGGAGAAGACUGCGGGUUCCAGUCCCGUACGGAACG [C4U C11G G56C] | ≤ 0.5 |
| GUUCCGUUGGCGUUAUCGUAACGCGUCUCCCUCCUAAGGAGAAGACUGCGGGGUCGAGUCCCGUACGGAACG [A14U G17C U53G] | 0.603 |
| GUUCCGUUGGCGUAAUGGUAACGCAUCUCCCUCCUAAGGAGAAGACUGCCGGUCCGAGUCCCGUACGGAACG [G25A G50C U54C] | 0.627 |
| GUUCCCUUGGCAUAAUGGUAACGCGUCUCCCUCCUAAGGAGAAGACUGCGGGUUCGACUCCCGUACGGAACG [G6C G12A G58C] | 0.964 |
| GUUUCGUUGGCGUAAUGGUCACGCGUCUCACUUUUAAGGAGAAGACUGAGGGUUCGAGUCCCGUACGGAACG [C4U A20C C30A C33U C34U C49A] | ≤ 0.5 |

| Variant | yeast fitness |
| --- | --- |
| GUUCCGUUGGCGUAAUGGUAACGCGUCUCCCUCUUAAGGCGAGGACUGCGGGUUCGAGUCCCGUACGGAACG [C34U A40C A43G] | 0.513 |
| GUUCCGUUAGCGUAAUGGUAACGCGUCUCCCUCCUAGGGAGAAGACUGCGGGUUCGAGUGCCGUACGGAACG [G9A A37G C60G] | ≤ 0.5 |
| GUUCCGUUGGCGUAAUGGUAACGCGACACGCUCCCAAGGAGAAGUCUGCGGGUUCGAGUCCCGUACGGAACG [U26A U28A C30G U35C A45U] | ≤ 0.5 |
| GUUCCGUUGGCGUAAUCGUAACGCGUCUCCCUCCUAAGGAGAGGAACGCGGCUUCGAGUCCCGUACGGAACG [G17C A43G C46A U47C G52C] | ≤ 0.5 |
| GUUCCGUUGACGUAAUGGUAACGCGUCUCCCUCCUCAGGAGAAGACUGCGGGUUCGAGUCCCGUACGGACCG [G10A A36C A70C] | ≤ 0.5 |
| GUUCCGUUGGCGUAAUGGUAACGCGUCUCCCUCCUAAGGAGGACACUGCGGGUUCGAGUACCGUACCAAACG [A42G G44C C60A G67C G68A] | ≤ 0.5 |
| GAUCCGUUAGCGUAAUGGUCACGUGUCUCCCUCCUAAGGAGAAGACUGCGGGUUCGAGUCCCGUACGGUACG [U2A G9A A20C C24U A69U] | ≤ 0.5 |
| GUUCCGUUGGGGUAAUGGUAACGCGUCUCCGUCCUAAGGAGAAGACUGCGGGUUCGAGUCCCGUACGGAACG [C11G C31G] | 0.555 |
| GUUGCGUUGGCGUAAUGGUAAGGCGUCUCCCUUCUCAGGUGAAGACUGCGGGUUCGAGUCCAGUACGGAACG [C4G C22G C33U A36C A40U C62A] | ≤ 0.5 |
| GUUCCGUUGGCGUAAUGGUAACGCGUCUCCCUCCUAAGGAGAAGACUGCAGGUUCGAGUCCCCUACGGAACG [G50A G63C] | 0.737 |
| GUUCCGUUGGAGUAAUGGUAGCGCGUCUCCCUCCUAAGGAGAACACUGUGGGUUCGUGUCCCAUACGGAACG [C11A A21G G44C C49U A57U G63A] | ≤ 0.5 |
| GUUCCGUUGGCGUAAUGGUAACGUGUCUCCCUCCUAGGAAGAAGACUCCGGGUUCGAGUCCCGUACGGAACG [C24U A37G G39A G48C] | ≤ 0.5 |
| GUUCCGUUGGCGUAAUGGUCACGCGUCUCCCUCCUACGGACAAGACUGCGCGUUCGAGUCCCGUACGGAACG [A20C A37C G41C G51C] | ≤ 0.5 |
| GUUCCGUUGGCGUAAUGGGAACGCGUCUCCCUCCUAAGGAGACGACUGCGGGCUGGAGUCCCGUACGGAACG [U19G A43C U53C C55G] | ≤ 0.5 |
| GUCCCGUUAGCGUAUUGGUAACGCGUCUCCCUCCUAAGGAGAAGACUGCGGGUUCGAGUCCCGUACGAAACG [U3C G9A A15U G68A] | ≤ 0.5 |
| GUUUCGUUGACGUACUGGUAACGCGUCUCCCUCCUAAGGAGAAGACUGCGGGUUCGAGCCCCGUACGGGACG [C4U G10A A15C U59C A69G] | ≤ 0.5 |
| GUCCCGUUGACGUAAUGGUAACGCGUCUCCCUCCUAAGGAGAAGACUGAGGGUUCGAGUGCCGUACGGAACG [U3C G10A C49A C60G] | ≤ 0.5 |
| GUUCCGAUGGCGUAAUGGUAACGCGUCUCCCUCCUACGGAGACGACUGCGGGUUCGAGCCCCGUACGGAACG [U7A A37C A43C U59C] | ≤ 0.5 |
